Experimental data from article PMC9226187, “Probing TDP-43 condensation using an in silico designed aptamer”.

Key:
[1] = molecular target: alpha-synuclein (UniProt P37840); experiment: BLI; conditions: BLI: 10 mM potassium phosphate pH 7.2, 150 mM KCl, 0.01% Tween20, 25 °C, biotin-RNA on streptavidin sensors, protein 20 nM-20 µM, PAINT in PBS, recombinant protein
[2] = molecular target: Abeta42 (UniProt P05067); experiment: BLI; conditions: BLI: 10 mM potassium phosphate pH 7.2, 150 mM KCl, 0.01% Tween20, 25 °C, biotin-RNA on streptavidin sensors, protein 20 nM-20 µM, PAINT in PBS, recombinant protein
[3] = molecular target: Abeta42 aggregates (UniProt P05067); experiment: single-molecule PAINT (TIRF); conditions: no substantial binding, recombinant protein
[4] = molecular target: TDP-43 RRM1-2 aggregates (UniProt Q13148); experiment: single-molecule PAINT (TIRF); conditions: recombinant protein, residues 102-269, protein details: His6-SUMO tag cleaved (TEV)
[5] = molecular target: alpha-synuclein aggregates (UniProt P37840); experiment: single-molecule PAINT (TIRF); conditions: no substantial binding, recombinant protein
[6] = molecular target: TDP-43 RRM2 (UniProt Q13148); experiment: BLI; conditions: BLI: 10 mM potassium phosphate pH 7.2, 150 mM KCl, 0.01% Tween20, 25 °C; biotin-RNA on streptavidin sensors, protein 20 nM-20 µM; PAINT in PBS; recombinant protein; residues 191-269; protein details: His6-SUMO tag cleaved (TEV); label: 3' biotin
[7] = molecular target: TDP-43 RRM1 (UniProt Q13148); experiment: BLI; conditions: BLI: 10 mM potassium phosphate pH 7.2, 150 mM KCl, 0.01% Tween20, 25 °C; biotin-RNA on streptavidin sensors, protein 20 nM-20 µM; PAINT in PBS; recombinant protein; residues 102-191; protein details: His6-SUMO tag cleaved (TEV); label: 3' biotin
[8] = label: ATTO590 (5' in cell version)

In the case of AGCAACACCG [nApt-1], the Kd ([1]; label: 5' biotin) is reported as greater than 10 µM and the Kd ([2]; label: 5' biotin) is reported as greater than 10 µM.
For AGCAACACCG [nApt-1_ATTO590], the binding result [3, 8] was “no binding”, the binding signal (fraction of aggregates detected vs Apt-1) [4, 8] was 0.2 and the binding result [5, 8] was “no binding”.
CGGUGUUGCU [Apt-1] was tested, and the binding result [6] was “no binding”, the Kd ([1]; label: 3' biotin) was greater than 10 µM and the Kd [7] was 0.58 µM. For the same sequence, the Kd ([2]; label: 3' biotin) was greater than 10 µM.
CGGUGUUGCU [Apt-1_ATTO590]: no binding ([3]; label: 3' ATTO590); binds ([4]; 1 nM aptamer, PBS, label: 3' ATTO590); no binding ([5]; label: 3' ATTO590).

For part of these data: Negatives hold for the conditions tested. For part of these data: At least one verdict was read from the data and is not stated in words by the source. For part of these data: The exact form of at least one protein or probe is not confirmed. For part of these data: Whether high values mean tight binding is not given here for every scale.
